Results are given in words; binding and its absence hold for the method and conditions named. In cells and extracts the contact can be indirect. Some results given as binding are weak or reduced against the parent protein; the word gives no strength.

Results on 14 molecules are retold here after PMC5052646, “DNA annealing by Redβ is insufficient for homologous recombination and the additional requirements involve intra- and inter-molecular interactions” (Scientific Reports, 2016).

Sequences and labels used below:
T1: Redα expressed from pSC101 Redγβα (λ phage) (UniProt P03697)
T1 sequence: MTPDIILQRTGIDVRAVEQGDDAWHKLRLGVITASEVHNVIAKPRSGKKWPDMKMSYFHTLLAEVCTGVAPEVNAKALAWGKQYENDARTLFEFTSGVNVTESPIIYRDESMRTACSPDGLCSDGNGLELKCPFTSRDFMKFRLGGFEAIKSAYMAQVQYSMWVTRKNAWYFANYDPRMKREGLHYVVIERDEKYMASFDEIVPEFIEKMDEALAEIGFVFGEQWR

T2: Redα expressed from pSC101 Redγβα (λ phage), P03697
T2 chain: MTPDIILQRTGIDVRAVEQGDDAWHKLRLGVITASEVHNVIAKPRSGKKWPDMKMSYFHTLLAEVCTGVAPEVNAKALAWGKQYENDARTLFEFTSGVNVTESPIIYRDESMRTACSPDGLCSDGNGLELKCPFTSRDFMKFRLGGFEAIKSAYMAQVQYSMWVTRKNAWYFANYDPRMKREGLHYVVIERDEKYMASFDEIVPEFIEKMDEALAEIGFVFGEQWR

B1: N1Redβ (20–261), Strep-tag II tagged, purified (domain or fragment, λ phage, UniProt P03698 20-261, looked up)
chain: SVDPQELITTLRQTAFKGDASDAQFIALLIVANQYGLNPWTKEIYAFPDKQNGIVPVVGVDGWSRIINENQQFDGMDFEQDNESCTCRIYRKDRNHPICVTEWMDECRREPFKTREGREITGPWQSHPKRMLRHKAMIQCARLAFGFAGIYDKDEAERIVENTAYTAERQPERDITPVNDETMQEINTLLIALDKTWDDDLLPLCSQIFRRDIRASSELTQAEAVKALGFLKQKAAEQKVAA
notes: Redβ of λ phage, residues 20-261 (N-terminal truncation N1); also called N1 deletion; not shown: Strep-tag II, C-terminal, kept
B2: RedβQ252A (protein, UniProt P03698 1-261)
chain: MSTALATLAGKLAERVGMDSVDPQELITTLRQTAFKGDASDAQFIALLIVANQYGLNPWTKEIYAFPDKQNGIVPVVGVDGWSRIINENQQFDGMDFEQDNESCTCRIYRKDRNHPICVTEWMDECRREPFKTREGREITGPWQSHPKRMLRHKAMIQCARLAFGFAGIYDKDEAERIVENTAYTAERQPERDITPVNDETMQEINTLLIALDKTWDDDLLPLCSQIFRRDIRASSELTQAEAVKALGFLKAKAAEQKVAA
B3: Redβ Q252A, E256A (protein, UniProt P03698 1-261)
chain: MSTALATLAGKLAERVGMDSVDPQELITTLRQTAFKGDASDAQFIALLIVANQYGLNPWTKEIYAFPDKQNGIVPVVGVDGWSRIINENQQFDGMDFEQDNESCTCRIYRKDRNHPICVTEWMDECRREPFKTREGREITGPWQSHPKRMLRHKAMIQCARLAFGFAGIYDKDEAERIVENTAYTAERQPERDITPVNDETMQEINTLLIALDKTWDDDLLPLCSQIFRRDIRASSELTQAEAVKALGFLKAKAAAQKVAA
B4: RedβK258A (protein, UniProt P03698 1-261)
chain: MSTALATLAGKLAERVGMDSVDPQELITTLRQTAFKGDASDAQFIALLIVANQYGLNPWTKEIYAFPDKQNGIVPVVGVDGWSRIINENQQFDGMDFEQDNESCTCRIYRKDRNHPICVTEWMDECRREPFKTREGREITGPWQSHPKRMLRHKAMIQCARLAFGFAGIYDKDEAERIVENTAYTAERQPERDITPVNDETMQEINTLLIALDKTWDDDLLPLCSQIFRRDIRASSELTQAEAVKALGFLKQKAAEQAVAA
B5: RedβE256A (protein, UniProt P03698 1-261)
chain: MSTALATLAGKLAERVGMDSVDPQELITTLRQTAFKGDASDAQFIALLIVANQYGLNPWTKEIYAFPDKQNGIVPVVGVDGWSRIINENQQFDGMDFEQDNESCTCRIYRKDRNHPICVTEWMDECRREPFKTREGREITGPWQSHPKRMLRHKAMIQCARLAFGFAGIYDKDEAERIVENTAYTAERQPERDITPVNDETMQEINTLLIALDKTWDDDLLPLCSQIFRRDIRASSELTQAEAVKALGFLKQKAAAQKVAA
B6: Redβ E191A, Q252A, E256A (protein, UniProt P03698 1-261)
chain: MSTALATLAGKLAERVGMDSVDPQELITTLRQTAFKGDASDAQFIALLIVANQYGLNPWTKEIYAFPDKQNGIVPVVGVDGWSRIINENQQFDGMDFEQDNESCTCRIYRKDRNHPICVTEWMDECRREPFKTREGREITGPWQSHPKRMLRHKAMIQCARLAFGFAGIYDKDEAERIVENTAYTAERQPARDITPVNDETMQEINTLLIALDKTWDDDLLPLCSQIFRRDIRASSELTQAEAVKALGFLKAKAAAQKVAA
B7: RedβQ240A (protein, UniProt P03698 1-261)
chain: MSTALATLAGKLAERVGMDSVDPQELITTLRQTAFKGDASDAQFIALLIVANQYGLNPWTKEIYAFPDKQNGIVPVVGVDGWSRIINENQQFDGMDFEQDNESCTCRIYRKDRNHPICVTEWMDECRREPFKTREGREITGPWQSHPKRMLRHKAMIQCARLAFGFAGIYDKDEAERIVENTAYTAERQPERDITPVNDETMQEINTLLIALDKTWDDDLLPLCSQIFRRDIRASSELTAAEAVKALGFLKQKAAEQKVAA
B8: Redβ E191A, Q240A, Q252A, E256A, K258A (protein, UniProt P03698 1-261)
chain: MSTALATLAGKLAERVGMDSVDPQELITTLRQTAFKGDASDAQFIALLIVANQYGLNPWTKEIYAFPDKQNGIVPVVGVDGWSRIINENQQFDGMDFEQDNESCTCRIYRKDRNHPICVTEWMDECRREPFKTREGREITGPWQSHPKRMLRHKAMIQCARLAFGFAGIYDKDEAERIVENTAYTAERQPARDITPVNDETMQEINTLLIALDKTWDDDLLPLCSQIFRRDIRASSELTAAEAVKALGFLKAKAAAQAVAA
B9: RedβE191A (protein, UniProt P03698 1-261)
chain: MSTALATLAGKLAERVGMDSVDPQELITTLRQTAFKGDASDAQFIALLIVANQYGLNPWTKEIYAFPDKQNGIVPVVGVDGWSRIINENQQFDGMDFEQDNESCTCRIYRKDRNHPICVTEWMDECRREPFKTREGREITGPWQSHPKRMLRHKAMIQCARLAFGFAGIYDKDEAERIVENTAYTAERQPARDITPVNDETMQEINTLLIALDKTWDDDLLPLCSQIFRRDIRASSELTQAEAVKALGFLKQKAAEQKVAA
B10: C3Redβ (1–185), Strep-tag II tagged, purified (domain or fragment, λ phage, UniProt P03698 1-185, looked up)
chain: MSTALATLAGKLAERVGMDSVDPQELITTLRQTAFKGDASDAQFIALLIVANQYGLNPWTKEIYAFPDKQNGIVPVVGVDGWSRIINENQQFDGMDFEQDNESCTCRIYRKDRNHPICVTEWMDECRREPFKTREGREITGPWQSHPKRMLRHKAMIQCARLAFGFAGIYDKDEAERIVENTAYT
notes: Redβ of λ phage, residues 1-185 (C-terminal truncation C3); also called C3 deletion; C3-truncated Redβ; not shown: Strep-tag II, C-terminal, kept
B11: wt Redβ, Strep-tag II tagged, purified (natural protein, λ phage, UniProt P03698 1-261, looked up)
chain: MSTALATLAGKLAERVGMDSVDPQELITTLRQTAFKGDASDAQFIALLIVANQYGLNPWTKEIYAFPDKQNGIVPVVGVDGWSRIINENQQFDGMDFEQDNESCTCRIYRKDRNHPICVTEWMDECRREPFKTREGREITGPWQSHPKRMLRHKAMIQCARLAFGFAGIYDKDEAERIVENTAYTAERQPERDITPVNDETMQEINTLLIALDKTWDDDLLPLCSQIFRRDIRASSELTQAEAVKALGFLKQKAAEQKVAA
notes: Redβ, single strand annealing protein of λ phage; the ORF cloned into pASK-IBA2; 261 residues by the printed limits of the truncations; also called wild type Redβ; not shown: Strep-tag II, C-terminal, kept

In the first test the target is T1, Redα expressed from pSC101 Redγβα (λ phage). Description: co-IP; lysates of E. coli GB2005 expressing Redγβα (wt or mutant Redβ); anti-Redα serum on protein-G sepharose; IP buffer 50 mM Tris-Cl pH 8.0, 150 mM NaCl, 10% glycerol, 1% triton X-100; room temperature, 20 minutes or 1 hour; blot probed with anti-Redβ antibody.
Settings: not given
For the molecule B1, the binding result is listed as “binds”.
Same read-out and setting: for B2 the value was “binds”; for B3, “binds”.
The same measure, in the same setting: for B4 the value was “binds”; for B5, “binds”.
With B6, the binding entry is on record as “binds”.
For B7, the binding entry is “binds”.
As for B8, the binding result is “binds”.
Same read-out and setting: for B9 the value was “binds”; for B10, “binds”.

The next test shares this target. The test is described as above.
Settings: not given
This is another data set of the same source.
In the case of “C2Redβ (1–217) (from UniProt P03698 1-217) (domain or fragment)”, the binding entry was “binds”.
Regarding “N2Redβ (38–261) (from UniProt P03698 38-261) (domain or fragment)”, the binding entry is recorded as “binds”.
Consider “C1Redβ (1–237) (from UniProt P03698 1-237) (domain or fragment)”, for which the binding entry is listed as “binds”.

The next test concerns the target T2, Redα expressed from pSC101 Redγβα (λ …). The test is described as above. The conditions noted are these: remark: other sources report otherwise.
Turning to B11, the binding result was “binds”.
